Laboratory results taken from the supplement of paper PMC12819154, “High-throughput peptide-centric local stability assay extends protein–ligand identification to membrane proteins, tissues and bacteria” (Nature Structural & Molecular Biology, 2025).
Some of the results follow. Most entries show no effect beyond the scatter of the controls.

Chains of the proteins cited; added tags and fusions are not shown. Lines headed by an entry give the natural chain unless they say otherwise; changes in a name come on top.
UniProt Q96JP5: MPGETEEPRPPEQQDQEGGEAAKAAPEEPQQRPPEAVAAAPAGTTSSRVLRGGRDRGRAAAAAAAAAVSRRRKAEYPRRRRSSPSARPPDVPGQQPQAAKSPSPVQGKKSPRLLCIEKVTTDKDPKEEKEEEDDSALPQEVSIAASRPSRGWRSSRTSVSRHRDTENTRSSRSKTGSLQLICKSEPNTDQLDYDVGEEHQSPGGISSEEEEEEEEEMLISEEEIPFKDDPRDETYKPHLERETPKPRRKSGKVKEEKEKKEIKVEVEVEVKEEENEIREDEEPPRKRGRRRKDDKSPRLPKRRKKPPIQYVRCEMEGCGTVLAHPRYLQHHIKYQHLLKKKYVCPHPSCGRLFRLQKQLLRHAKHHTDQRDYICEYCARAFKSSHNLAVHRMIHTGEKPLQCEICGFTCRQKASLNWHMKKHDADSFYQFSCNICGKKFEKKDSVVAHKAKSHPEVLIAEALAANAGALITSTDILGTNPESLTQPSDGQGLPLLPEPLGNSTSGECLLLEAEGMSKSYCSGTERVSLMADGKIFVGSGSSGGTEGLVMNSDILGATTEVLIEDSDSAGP
UniProt Q96LJ7: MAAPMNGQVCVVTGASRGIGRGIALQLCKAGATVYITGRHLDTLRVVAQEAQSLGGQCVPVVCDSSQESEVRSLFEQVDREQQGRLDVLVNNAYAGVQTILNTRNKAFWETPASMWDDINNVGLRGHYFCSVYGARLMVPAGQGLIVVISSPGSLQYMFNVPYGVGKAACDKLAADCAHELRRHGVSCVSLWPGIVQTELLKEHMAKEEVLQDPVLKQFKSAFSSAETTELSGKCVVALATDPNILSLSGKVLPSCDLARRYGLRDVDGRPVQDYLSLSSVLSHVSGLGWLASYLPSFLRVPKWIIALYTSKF
UniProt Q96IT1: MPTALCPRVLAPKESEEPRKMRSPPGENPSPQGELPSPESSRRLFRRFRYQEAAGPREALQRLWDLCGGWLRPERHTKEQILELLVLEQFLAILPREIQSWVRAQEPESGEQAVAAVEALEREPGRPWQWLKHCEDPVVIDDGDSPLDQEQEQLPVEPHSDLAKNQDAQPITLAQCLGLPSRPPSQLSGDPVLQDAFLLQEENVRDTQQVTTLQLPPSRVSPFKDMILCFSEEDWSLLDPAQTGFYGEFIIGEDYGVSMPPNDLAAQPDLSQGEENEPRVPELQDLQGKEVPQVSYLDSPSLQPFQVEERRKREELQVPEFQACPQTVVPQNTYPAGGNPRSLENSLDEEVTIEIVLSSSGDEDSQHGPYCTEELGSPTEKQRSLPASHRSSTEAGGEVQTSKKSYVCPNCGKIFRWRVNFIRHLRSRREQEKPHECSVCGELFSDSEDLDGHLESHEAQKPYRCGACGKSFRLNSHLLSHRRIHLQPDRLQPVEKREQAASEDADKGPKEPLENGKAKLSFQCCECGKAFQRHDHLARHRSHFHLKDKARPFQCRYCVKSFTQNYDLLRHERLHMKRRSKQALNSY
UniProt Q96HQ0: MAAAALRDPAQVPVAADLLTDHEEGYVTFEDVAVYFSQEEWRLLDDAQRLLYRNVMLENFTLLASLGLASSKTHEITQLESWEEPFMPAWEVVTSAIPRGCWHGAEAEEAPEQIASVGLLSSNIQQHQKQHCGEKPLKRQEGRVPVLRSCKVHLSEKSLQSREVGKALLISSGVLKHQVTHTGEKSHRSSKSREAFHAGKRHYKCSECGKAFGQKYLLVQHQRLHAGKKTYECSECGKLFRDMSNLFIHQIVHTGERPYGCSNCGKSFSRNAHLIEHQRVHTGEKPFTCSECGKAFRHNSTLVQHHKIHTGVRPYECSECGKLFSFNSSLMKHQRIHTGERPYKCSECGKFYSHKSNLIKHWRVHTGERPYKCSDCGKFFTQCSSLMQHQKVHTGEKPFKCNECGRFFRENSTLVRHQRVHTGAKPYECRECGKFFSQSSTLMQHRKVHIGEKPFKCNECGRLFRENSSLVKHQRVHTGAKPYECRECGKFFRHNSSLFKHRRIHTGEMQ
UniProt Q96Q89: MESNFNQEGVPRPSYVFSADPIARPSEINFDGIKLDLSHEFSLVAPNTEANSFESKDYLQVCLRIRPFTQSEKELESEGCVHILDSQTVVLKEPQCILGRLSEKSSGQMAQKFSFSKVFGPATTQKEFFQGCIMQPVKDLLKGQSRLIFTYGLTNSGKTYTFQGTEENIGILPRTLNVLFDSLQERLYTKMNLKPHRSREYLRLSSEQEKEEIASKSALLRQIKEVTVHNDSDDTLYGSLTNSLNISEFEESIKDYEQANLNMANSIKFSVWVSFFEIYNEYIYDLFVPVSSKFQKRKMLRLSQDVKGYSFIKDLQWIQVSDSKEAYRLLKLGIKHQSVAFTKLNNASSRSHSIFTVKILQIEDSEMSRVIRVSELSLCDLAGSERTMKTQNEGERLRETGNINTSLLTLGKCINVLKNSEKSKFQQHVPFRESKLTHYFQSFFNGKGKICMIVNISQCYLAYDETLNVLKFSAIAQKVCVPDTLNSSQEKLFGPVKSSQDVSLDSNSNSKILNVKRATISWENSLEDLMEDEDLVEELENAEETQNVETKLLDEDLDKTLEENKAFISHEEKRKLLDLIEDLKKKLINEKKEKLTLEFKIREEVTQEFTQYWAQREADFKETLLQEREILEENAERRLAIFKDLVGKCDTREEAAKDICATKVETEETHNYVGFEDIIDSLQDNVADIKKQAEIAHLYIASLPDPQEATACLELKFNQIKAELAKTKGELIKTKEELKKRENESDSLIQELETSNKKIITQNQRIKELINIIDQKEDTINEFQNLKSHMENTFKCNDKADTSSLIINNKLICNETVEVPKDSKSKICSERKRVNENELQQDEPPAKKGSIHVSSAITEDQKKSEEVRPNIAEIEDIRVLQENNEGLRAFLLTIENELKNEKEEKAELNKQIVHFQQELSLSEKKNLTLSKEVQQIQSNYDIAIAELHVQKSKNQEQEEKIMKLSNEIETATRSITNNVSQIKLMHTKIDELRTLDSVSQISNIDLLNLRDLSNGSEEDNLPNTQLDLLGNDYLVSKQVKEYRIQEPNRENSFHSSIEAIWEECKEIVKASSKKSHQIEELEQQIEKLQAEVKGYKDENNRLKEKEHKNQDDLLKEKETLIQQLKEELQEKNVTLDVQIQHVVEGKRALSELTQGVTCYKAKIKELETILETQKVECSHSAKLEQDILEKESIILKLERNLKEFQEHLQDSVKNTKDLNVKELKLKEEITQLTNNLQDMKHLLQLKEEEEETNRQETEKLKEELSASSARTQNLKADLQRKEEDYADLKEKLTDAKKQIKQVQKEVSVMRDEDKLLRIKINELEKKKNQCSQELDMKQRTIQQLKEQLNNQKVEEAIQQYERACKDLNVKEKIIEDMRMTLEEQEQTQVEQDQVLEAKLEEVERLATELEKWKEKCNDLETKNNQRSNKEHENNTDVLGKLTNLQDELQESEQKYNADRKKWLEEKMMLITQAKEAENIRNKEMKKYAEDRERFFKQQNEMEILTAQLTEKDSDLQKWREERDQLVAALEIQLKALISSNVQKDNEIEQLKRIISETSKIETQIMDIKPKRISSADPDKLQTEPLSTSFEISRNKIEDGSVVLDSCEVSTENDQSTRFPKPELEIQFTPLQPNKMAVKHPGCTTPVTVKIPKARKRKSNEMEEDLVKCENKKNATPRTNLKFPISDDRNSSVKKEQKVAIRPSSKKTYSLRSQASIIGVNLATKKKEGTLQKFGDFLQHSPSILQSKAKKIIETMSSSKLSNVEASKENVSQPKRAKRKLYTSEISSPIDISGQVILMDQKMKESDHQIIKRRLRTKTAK
UniProt Q96SN7, whole entry: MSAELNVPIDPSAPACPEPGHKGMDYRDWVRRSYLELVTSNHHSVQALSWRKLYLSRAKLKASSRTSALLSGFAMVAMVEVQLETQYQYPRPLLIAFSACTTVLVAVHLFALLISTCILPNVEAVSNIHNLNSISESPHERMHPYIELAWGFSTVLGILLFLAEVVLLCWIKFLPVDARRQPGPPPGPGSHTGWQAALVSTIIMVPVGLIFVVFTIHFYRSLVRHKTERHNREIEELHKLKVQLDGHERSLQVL
UniProt Q96LT9: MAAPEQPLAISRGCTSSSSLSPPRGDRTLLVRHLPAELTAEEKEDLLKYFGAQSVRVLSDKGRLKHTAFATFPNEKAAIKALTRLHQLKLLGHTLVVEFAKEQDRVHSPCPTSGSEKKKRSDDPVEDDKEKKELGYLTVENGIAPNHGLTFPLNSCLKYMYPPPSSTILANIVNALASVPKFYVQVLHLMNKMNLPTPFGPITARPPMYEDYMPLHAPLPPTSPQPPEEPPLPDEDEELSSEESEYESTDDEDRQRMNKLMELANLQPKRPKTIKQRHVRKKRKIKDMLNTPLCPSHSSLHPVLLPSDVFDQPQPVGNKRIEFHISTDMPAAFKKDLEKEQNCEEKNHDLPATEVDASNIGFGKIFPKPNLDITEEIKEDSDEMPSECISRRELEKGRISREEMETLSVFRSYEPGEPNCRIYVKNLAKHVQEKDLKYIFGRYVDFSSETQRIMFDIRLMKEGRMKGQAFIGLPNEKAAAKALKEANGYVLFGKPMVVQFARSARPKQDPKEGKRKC
UniProt Q96HB5: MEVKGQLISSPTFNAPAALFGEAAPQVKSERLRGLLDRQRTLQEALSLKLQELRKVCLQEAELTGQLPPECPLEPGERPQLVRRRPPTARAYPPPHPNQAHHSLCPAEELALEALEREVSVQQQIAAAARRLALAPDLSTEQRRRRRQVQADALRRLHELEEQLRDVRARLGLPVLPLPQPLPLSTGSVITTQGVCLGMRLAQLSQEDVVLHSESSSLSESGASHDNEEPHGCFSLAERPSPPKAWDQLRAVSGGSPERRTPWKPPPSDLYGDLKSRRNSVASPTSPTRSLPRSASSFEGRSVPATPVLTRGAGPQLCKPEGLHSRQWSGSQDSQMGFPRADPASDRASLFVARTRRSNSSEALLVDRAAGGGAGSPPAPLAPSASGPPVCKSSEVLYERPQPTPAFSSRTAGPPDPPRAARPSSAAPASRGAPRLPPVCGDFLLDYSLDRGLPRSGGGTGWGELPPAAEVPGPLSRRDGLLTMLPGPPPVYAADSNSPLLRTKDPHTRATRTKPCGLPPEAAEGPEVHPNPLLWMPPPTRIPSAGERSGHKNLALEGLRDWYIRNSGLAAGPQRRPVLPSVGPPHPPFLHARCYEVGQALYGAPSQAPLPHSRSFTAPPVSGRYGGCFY

compound: CN[C@@H]1C[C@H]2O[C@@](C)([C@@H]1OC)n1c3ccccc3c3c4c(c5c6ccccc6n2c5c31)C(=O)NC4 [staurosporine]; assay: log2 fold change of tryptic peptide abundance, ligand vs vehicle (limited proteolysis) (log2 ratio); higher = more trypsin-susceptible (destabilized); details: ligand concentration: 20 uM; sample: K562 cleared lysate; digestion: 4 min, 22 C (HT-PELSA RT4min, Orbitrap Astral)

Row | Target | log2 fold change
1 | ZFP91 (peptide sequence: RSSPSARPPDVPGQQPQAAK, peptide start residue: 81) (UniProt Q96JP5) | 0.475
2 | DHRS1 (peptide sequence: EEVLQDPVLK, peptide start residue: 208) (UniProt Q96LJ7) | -0.553
3 | UniProt Q96IT1 (peptide sequence: LSFQCCECGK, peptide start residue: 520) | 0.135
4 | UniProt Q96HQ0 (peptide sequence: ALLISSGVLK, peptide start residue: 167) | -0.526
5 | KIF20B (peptide sequence: DYLQVCLR, peptide start residue: 57) (UniProt Q96Q89) | -0.713
6 | UniProt Q96SN7 (peptide sequence: HNREIEELHK, peptide start residue: 230) | -0.184
7 | RNPC3 (peptide sequence: LLGHTLVVEFAK, peptide start residue: 90) (UniProt Q96LT9) | -0.142
8 | UniProt Q96HB5 (peptide sequence: RPVLPSVGPPHPPFLHAR, peptide start residue: 576) | 0.11
